In patent US20230192896A1:
Results are given in words; binding and its absence hold for the method and conditions named. Some binding calls cover weakened binding; strength is not graded here.

By UniProt entry, the sequences of proteins in these tests, tags left out. Where a name states a change or a piece, a line headed by the entry shows the natural chain unless it says otherwise.
UniProt P00742: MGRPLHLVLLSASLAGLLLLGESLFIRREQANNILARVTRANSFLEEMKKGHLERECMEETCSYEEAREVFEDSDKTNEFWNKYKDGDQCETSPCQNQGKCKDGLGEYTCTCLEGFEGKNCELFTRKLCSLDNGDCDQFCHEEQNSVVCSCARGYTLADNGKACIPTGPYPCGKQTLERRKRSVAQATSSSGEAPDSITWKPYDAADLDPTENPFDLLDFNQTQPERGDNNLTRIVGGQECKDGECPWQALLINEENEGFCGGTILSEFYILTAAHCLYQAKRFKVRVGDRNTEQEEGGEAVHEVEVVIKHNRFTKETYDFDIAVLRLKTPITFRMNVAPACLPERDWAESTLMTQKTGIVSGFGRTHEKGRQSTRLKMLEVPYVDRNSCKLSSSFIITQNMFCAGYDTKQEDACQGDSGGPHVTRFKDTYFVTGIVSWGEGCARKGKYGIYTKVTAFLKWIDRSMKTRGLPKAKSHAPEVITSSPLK

Target: FX zymogen (Homo sapiens (Human)) (UniProt P00742)
Assay: BLI, antibody on AHQ sensor, 250 nM FX variant

binding: binds
B1: BIIB-12-917 (antibody, V domains shown)
VH: EVQLVQSGAEVKKPGESLKISCKGSGYSFTTYWIGWVRQMPGKGLEWMGIIYPGDSDTRYSPSFQGQVTISADKSISTAYLQWSSLKASDTAMYYCARGRFRPRGRFDYWGQGTLVTVSS
VL: EIVMTQSPATLSVSPGERATLSCRASQSVSSNLAWYQQKPGQAPRLLIYGASTRATGIPARFSGSGSGTEFTLTISSLQSEDFAVYYCQQLFNHPPTFGGGTKVEIK
